Source: paper PMC11884789
No constants are given. Whether binding was seen depends on the method and setting. In cells and extracts the contact can be indirect. Here binding means that the protein was enriched with, or labelled near, the bait; the list need not be complete.

Protein sequences, listed by entry. Tags and fused reporters are not part of them.
UniProt F1N4J1: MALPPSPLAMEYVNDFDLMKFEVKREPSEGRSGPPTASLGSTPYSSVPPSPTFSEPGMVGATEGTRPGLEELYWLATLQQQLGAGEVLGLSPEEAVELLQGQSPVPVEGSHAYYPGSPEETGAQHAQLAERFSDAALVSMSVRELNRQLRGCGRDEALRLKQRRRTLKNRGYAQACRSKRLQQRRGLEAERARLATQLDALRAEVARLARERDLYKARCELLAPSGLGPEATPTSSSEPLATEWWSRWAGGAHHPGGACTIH
UniProt P54845: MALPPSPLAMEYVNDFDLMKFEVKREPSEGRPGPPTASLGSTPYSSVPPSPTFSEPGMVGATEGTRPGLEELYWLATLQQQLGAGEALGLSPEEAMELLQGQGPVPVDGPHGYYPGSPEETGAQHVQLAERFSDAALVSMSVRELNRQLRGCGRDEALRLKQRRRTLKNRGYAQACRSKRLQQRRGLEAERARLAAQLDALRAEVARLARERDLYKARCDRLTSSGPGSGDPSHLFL
UniProt P54846: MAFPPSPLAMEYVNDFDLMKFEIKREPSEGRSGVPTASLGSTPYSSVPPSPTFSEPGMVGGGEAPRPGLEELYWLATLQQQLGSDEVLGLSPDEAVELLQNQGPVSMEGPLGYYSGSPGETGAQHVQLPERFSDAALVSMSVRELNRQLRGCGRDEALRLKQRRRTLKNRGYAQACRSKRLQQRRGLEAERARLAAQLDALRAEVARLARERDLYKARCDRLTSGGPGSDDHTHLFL
UniProt Q9XSK0: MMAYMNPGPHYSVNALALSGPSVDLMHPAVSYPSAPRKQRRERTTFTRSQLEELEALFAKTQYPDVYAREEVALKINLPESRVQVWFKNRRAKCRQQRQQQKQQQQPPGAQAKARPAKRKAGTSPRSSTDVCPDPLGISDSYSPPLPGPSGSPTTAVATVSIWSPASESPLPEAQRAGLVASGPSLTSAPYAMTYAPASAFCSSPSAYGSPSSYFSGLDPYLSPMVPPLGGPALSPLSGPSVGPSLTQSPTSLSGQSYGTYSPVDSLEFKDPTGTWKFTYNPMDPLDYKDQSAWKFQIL
UniProt A0A3Q1M155: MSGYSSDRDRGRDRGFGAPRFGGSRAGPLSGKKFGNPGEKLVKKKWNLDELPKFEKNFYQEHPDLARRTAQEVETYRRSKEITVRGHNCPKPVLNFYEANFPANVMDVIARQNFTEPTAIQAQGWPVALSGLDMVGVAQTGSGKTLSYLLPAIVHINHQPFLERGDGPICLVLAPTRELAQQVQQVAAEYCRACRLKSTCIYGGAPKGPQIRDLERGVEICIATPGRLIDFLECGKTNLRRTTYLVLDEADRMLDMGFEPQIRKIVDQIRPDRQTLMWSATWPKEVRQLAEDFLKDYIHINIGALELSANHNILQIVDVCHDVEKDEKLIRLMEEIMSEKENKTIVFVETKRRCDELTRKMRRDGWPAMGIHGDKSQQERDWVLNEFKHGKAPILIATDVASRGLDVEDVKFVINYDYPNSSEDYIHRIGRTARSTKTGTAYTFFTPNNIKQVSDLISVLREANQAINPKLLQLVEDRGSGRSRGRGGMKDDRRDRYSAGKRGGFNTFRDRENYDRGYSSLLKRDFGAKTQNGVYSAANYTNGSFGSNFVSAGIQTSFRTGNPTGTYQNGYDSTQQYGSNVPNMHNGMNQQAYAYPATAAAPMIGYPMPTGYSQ
UniProt Q28141: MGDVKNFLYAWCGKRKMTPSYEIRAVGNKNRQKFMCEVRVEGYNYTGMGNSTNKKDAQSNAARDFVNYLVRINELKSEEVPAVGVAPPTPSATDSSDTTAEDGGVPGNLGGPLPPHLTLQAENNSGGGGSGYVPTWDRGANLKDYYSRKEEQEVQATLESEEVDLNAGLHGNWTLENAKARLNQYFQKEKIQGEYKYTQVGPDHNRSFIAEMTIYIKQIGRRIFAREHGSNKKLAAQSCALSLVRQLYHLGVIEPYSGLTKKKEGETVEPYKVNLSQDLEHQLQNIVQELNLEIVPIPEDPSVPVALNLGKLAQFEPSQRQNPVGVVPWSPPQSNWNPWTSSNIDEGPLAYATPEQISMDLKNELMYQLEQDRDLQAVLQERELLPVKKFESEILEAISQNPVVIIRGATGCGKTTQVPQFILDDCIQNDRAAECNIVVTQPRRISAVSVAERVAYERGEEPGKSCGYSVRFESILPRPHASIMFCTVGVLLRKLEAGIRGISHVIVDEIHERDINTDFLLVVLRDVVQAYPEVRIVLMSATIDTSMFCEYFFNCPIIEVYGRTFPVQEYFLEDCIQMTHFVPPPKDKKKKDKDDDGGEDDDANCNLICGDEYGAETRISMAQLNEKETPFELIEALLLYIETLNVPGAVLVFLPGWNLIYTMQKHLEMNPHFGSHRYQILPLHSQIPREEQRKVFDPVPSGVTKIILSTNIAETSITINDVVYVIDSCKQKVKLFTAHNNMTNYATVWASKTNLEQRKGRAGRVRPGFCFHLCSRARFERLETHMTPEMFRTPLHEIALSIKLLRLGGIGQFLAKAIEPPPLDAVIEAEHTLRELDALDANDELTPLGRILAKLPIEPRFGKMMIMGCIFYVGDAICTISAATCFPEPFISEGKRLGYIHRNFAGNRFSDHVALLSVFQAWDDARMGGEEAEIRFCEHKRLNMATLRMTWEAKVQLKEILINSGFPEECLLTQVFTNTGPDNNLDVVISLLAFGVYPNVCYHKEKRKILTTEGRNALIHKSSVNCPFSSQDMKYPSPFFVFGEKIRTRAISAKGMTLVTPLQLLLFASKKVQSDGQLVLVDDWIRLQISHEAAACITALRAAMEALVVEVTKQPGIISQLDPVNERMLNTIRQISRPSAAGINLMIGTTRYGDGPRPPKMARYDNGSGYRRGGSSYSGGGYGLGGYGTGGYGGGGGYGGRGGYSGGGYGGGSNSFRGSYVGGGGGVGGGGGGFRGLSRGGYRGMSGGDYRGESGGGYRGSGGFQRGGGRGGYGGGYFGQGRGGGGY
UniProt O70133: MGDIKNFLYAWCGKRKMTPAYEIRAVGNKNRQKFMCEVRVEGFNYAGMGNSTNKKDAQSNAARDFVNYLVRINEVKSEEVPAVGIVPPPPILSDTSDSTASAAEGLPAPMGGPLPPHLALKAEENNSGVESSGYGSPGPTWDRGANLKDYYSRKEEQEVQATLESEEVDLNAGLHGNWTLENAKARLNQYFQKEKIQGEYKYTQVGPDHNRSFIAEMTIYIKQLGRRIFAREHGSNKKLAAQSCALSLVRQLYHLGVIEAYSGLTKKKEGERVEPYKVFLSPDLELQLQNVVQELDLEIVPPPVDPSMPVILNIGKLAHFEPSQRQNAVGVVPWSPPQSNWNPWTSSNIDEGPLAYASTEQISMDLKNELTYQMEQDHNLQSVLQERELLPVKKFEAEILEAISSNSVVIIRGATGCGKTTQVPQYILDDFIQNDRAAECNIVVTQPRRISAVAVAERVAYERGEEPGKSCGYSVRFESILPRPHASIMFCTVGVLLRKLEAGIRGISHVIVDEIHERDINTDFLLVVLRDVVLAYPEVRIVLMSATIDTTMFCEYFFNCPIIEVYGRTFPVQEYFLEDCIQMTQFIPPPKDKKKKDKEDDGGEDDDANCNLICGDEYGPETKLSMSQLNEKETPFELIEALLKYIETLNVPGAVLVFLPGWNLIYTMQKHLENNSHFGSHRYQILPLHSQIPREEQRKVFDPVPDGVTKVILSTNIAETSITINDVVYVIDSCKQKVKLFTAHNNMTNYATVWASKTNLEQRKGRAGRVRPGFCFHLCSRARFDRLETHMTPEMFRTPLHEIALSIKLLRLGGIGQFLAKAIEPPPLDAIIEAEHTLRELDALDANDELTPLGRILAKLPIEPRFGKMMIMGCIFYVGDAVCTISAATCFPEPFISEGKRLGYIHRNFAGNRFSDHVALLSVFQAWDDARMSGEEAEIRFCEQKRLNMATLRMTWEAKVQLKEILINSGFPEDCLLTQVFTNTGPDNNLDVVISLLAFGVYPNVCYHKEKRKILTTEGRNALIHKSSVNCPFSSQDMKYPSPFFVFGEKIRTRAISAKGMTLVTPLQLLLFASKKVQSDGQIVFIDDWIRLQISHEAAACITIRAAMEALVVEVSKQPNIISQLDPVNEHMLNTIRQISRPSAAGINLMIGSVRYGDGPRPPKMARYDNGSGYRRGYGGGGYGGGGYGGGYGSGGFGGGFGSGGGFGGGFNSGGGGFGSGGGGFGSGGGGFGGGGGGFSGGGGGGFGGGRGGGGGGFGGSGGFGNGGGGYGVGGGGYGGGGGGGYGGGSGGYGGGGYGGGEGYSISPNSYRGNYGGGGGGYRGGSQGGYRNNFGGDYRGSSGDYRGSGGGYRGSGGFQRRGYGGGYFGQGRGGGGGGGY
UniProt Q9TTF0: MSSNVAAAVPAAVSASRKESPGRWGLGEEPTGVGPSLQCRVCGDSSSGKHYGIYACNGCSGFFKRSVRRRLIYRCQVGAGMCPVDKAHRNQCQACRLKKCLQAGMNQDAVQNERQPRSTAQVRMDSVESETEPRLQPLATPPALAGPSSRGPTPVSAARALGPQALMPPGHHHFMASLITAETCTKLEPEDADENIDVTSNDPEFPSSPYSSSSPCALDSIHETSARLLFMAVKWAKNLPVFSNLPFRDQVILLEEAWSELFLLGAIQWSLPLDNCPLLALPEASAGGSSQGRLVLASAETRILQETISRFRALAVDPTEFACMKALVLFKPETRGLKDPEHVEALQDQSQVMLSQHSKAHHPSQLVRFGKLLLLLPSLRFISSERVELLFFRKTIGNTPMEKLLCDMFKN

B1: NonO/p54^nrb, bovine retina (protein, UniProt Q2KJ42 1-470)
chain: MQSNKTFNLEKQNHTPRKHHQHHHQQHHQQQQQQPPPPPMPANGQQASSQNEGLTIDLKNFRKPGEKTFTQRSRLFVGNLPPDITEEEMRKLFEKYGKAGEVFIHKDKGFGFIRLETRTLAEIAKVELDNMPLRGKQLRVRFACHSASLTVRNLPQYVSNELLEEAFSVFGQVERAVVIVDDRGRPSGKGIVEFSGKPAARKALDRCSEGSFLLTTFPRPVTVEPMDQLDDEEGLPEKLVIKNQQFHKEREQPPRFAQPGSFEYEYAMRWKALIEMEKQQQDQVDRNIKEAREKLEMEMEAARHEHQVMLMRQDLMRRQEELRRMEELHNQEVQKRKQLELRQEEERRRREEEMRRQQEEMMRRQQEGFKGTFPDAREQEIRMGQMAMGGAMGINNRGAMPPAPVPAGTPAPPGPATMMPDGTLGLTPPTTERFGQAATMEGIGAIGGTPPAFNRAAPGAEFAPNKRRRY

How the values were obtained:
[1] = target: NRL, endogenous in bovine retina (bovine (endogenous in bovine retina)) (UniProt F1N4J1); assay: affinity purification with mass spectrometry; Sephacryl S-300 peaks of 650 and 450 kDa from bovine retinal nuclear extract immunoprecipitated with NRL antibody/protein A beads overnight at 4°C; LC-MS-MS; IgG control
[2] = target: human NRL fused to GST (human) (UniProt P54845); assay: affinity purification with mass spectrometry; GST-NRL on Glutathione Sepharose beads incubated 2 hr at 4°C with nuclear fraction from bovine retina; LC-MS-MS; GST only as control; n = 3; only the target purified
[3] = target: NRL, endogenous in mouse retina (mouse (endogenous in mouse retina)) (UniProt P54846); assay: affinity purification with mass spectrometry; NRL co-IP from mouse retina nuclear extracts; LC-MS-MS; IgG control

Molecule | binding [1] | binding [2] | binding [3]
CRX, bovine retina (from UniProt Q9XSK0 1-299) | binds | – | –
DDX5, bovine retina (from UniProt A0A3Q1M155 1-614) | binds | – | –
DHX9, bovine retina (from UniProt Q28141 1-1287) | binds | binds | –
DHX9, mouse retina (from UniProt O70133 1-1380) | – | – | binds
NR2E3, bovine retina (from UniProt Q9TTF0 1-411) | binds | – | –
B1 | binds | – | –
